# Reference: the supplement of paper PMC6411743
# ± gives the standard deviation of the averaged measurements. The list shows a part of the results.
# Legend:
# Assay in all cases: NP40-soluble protein abundance relative to vehicle (solubility fold change) (ratio); higher = more soluble protein in presence of GTP
# [1] = biological target: T1, D6RDX7 and related entries (UniProt Q6PCB8)
# T1 sequence (whole entry): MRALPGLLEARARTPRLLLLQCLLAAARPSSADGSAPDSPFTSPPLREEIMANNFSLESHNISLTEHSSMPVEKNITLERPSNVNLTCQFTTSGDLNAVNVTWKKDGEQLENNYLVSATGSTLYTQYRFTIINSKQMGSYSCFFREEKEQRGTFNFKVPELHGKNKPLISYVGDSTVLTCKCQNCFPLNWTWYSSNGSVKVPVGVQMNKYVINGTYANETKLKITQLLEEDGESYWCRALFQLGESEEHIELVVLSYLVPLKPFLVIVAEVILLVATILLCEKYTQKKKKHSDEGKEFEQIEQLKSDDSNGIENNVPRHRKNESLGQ
# Method in brief: (§1)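 In three independent experiments, Jurkat crude lysate made by Dounce homogenisation was treated for 10 min at room temperature and then 3 min at 37 °C with eight concentrations ranging from 0.1 to 10 mM. It was then solubilised with 0.8% NP40 plus benzonase for 60 min at 4 °C and ultracentrifuged. The supernatant was TMT-labelled for LC-MS/MS, and each value is the fold change against the detergent-processed vehicle for the same replicate, using vsn-normalised intensities.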
# [2] = biological target: T2, E3W994 and related entries (UniProt O75122)
# T2 sequence (whole entry): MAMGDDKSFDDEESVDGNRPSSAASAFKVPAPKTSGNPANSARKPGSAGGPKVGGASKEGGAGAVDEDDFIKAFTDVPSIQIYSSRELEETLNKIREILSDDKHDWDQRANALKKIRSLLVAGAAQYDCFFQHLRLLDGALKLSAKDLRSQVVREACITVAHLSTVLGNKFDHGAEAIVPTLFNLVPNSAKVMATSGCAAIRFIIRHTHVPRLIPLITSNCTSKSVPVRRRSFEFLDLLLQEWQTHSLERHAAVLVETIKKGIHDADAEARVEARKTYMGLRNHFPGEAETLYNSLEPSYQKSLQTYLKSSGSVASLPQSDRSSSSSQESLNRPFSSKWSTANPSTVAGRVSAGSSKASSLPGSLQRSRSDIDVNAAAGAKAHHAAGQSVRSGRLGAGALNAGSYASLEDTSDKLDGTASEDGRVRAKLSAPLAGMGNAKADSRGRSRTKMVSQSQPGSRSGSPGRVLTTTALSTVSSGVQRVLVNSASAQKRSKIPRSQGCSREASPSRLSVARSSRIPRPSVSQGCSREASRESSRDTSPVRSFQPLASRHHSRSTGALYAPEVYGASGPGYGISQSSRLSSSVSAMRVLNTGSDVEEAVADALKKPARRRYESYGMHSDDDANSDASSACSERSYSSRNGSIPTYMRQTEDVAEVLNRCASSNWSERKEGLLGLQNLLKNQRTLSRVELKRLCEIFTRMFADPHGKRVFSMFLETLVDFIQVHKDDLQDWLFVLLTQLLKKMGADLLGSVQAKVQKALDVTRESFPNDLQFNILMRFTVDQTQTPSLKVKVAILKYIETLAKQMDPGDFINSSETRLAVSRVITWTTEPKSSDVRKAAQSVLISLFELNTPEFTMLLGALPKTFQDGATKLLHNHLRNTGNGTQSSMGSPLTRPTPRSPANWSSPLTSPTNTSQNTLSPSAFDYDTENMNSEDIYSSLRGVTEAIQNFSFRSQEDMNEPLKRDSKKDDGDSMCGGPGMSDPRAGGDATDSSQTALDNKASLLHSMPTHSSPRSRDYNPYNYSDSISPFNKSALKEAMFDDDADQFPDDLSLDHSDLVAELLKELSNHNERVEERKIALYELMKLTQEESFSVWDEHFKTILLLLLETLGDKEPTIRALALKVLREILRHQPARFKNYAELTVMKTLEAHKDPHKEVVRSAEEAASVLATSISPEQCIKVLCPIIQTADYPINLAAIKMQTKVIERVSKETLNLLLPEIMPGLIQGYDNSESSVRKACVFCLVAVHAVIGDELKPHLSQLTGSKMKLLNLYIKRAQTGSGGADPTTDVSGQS
# Method in brief: as §1
# [3] = biological target: T3, E7EMK3 and related entries (UniProt Q14254)
# T3 sequence (whole entry): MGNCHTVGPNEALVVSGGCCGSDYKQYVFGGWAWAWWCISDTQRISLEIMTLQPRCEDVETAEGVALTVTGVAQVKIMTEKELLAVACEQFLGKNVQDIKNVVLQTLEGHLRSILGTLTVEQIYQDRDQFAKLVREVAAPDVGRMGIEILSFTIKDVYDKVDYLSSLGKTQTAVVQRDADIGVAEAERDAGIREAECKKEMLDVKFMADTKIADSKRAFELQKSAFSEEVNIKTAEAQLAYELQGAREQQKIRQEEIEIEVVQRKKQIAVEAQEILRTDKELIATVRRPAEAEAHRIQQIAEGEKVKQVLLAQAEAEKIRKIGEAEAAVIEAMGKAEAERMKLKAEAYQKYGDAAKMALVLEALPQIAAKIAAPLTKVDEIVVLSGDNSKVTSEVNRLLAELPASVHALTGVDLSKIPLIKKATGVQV
# Method in brief: as §1
# [4] = biological target: T4, E7EMN6 and related entries (UniProt P41236)
# T4 sequence (whole entry): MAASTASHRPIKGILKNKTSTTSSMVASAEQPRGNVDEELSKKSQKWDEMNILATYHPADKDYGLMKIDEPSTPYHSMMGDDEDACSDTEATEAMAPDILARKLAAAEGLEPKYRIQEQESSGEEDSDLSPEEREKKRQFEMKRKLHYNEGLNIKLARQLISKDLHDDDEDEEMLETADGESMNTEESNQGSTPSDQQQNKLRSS
# Method in brief: as §1
smiles,measurement,setting,value
Nc1nc2c(ncn2[C@@H]2O[C@H](COP(=O)(O)OP(=O)(O)OP(=O)(O)O)[C@@H](O)[C@H]2O)c(=O)[nH]1 [guanosine triphosphate],NP40-soluble protein abundance,[1]; concentration: 4mM,0.901 ± 0.12
same,NP40-soluble protein abundance,[1]; concentration: 6mM,0.927 ± 0.14
same,NP40-soluble protein abundance,[1]; concentration: 8mM,0.91 ± 0.098
same,NP40-soluble protein abundance,[1]; concentration: 10mM,0.954 ± 0.065
same,NP40-soluble protein abundance,[2]; concentration: 0.1mM,1 ± 0.041
same,NP40-soluble protein abundance,[2]; concentration: 0.5mM,1.04 ± 0.053
same,NP40-soluble protein abundance,[2]; concentration: 1mM,1.1 ± 0.073
same,NP40-soluble protein abundance,[2]; concentration: 2mM,1.13 ± 0.12
same,NP40-soluble protein abundance,[2]; concentration: 4mM,1.16 ± 0.13
same,NP40-soluble protein abundance,[2]; concentration: 6mM,1.17 ± 0.14
same,NP40-soluble protein abundance,[2]; concentration: 8mM,1.19 ± 0.18
same,NP40-soluble protein abundance,[2]; concentration: 10mM,1.21 ± 0.21
same,NP40-soluble protein abundance,[3]; concentration: 0.1mM,1.04 ± 0.066
same,NP40-soluble protein abundance,[3]; concentration: 0.5mM,1.14 ± 0.1
same,NP40-soluble protein abundance,[3]; concentration: 1mM,1.09 ± 0.075
same,NP40-soluble protein abundance,[3]; concentration: 2mM,1.14 ± 0.11
same,NP40-soluble protein abundance,[3]; concentration: 4mM,1.25 ± 0.099
same,NP40-soluble protein abundance,[3]; concentration: 6mM,1.22 ± 0.18
same,NP40-soluble protein abundance,[3]; concentration: 8mM,1.25 ± 0.19
same,NP40-soluble protein abundance,[3]; concentration: 10mM,1.2 ± 0.16
same,NP40-soluble protein abundance,[4]; concentration: 0.1mM,1.02 ± 0.046
same,NP40-soluble protein abundance,[4]; concentration: 0.5mM,1.02 ± 0.02
same,NP40-soluble protein abundance,[4]; concentration: 1mM,1.09 ± 0.096
same,NP40-soluble protein abundance,[4]; concentration: 2mM,1.07 ± 0.024
same,NP40-soluble protein abundance,[4]; concentration: 4mM,0.9697 ± 0.0043
same,NP40-soluble protein abundance,[4]; concentration: 6mM,1.02 ± 0.043
same,NP40-soluble protein abundance,[4]; concentration: 8mM,1.042 ± 0.0026
same,NP40-soluble protein abundance,[4]; concentration: 10mM,1.1 ± 0.1

# 2 entries from above, as tab-separated lines.
smiles	measurement	setting	value
Nc1nc2c(ncn2[C@@H]2O[C@H](COP(=O)(O)OP(=O)(O)OP(=O)(O)O)[C@@H](O)[C@H]2O)c(=O)[nH]1 [guanosine triphosphate]	NP40-soluble protein abundance	[2]; concentration: 8mM	1.19 ± 0.18
same	NP40-soluble protein abundance	[4]; concentration: 1mM	1.09 ± 0.096
